# In PubChem BioAssay (NCATS):
# Values joined by “and” are separate entries in the source; they are usually repeats but may differ in a detail not shown here. Identical values can stand only once. The list shows a part of the results. These are further read-outs of the screen, such as a control signal, another cell line or another target. No call is given for them. Compounds called inactive in the main read-out are mostly missing here. For some of these results: Potencies come from curve fits of mixed quality, noted in brackets.
# Tests used:
# [1] = A High-Content qHTS Against Drug Library for the Identification of Small Molecules that Inhibit DYT1 Early Onset Primary Dystonia-Associated Cell Pathology (AID 1645839); details: HEK293 Flp-In EGFP-delE TorsinA, punctate imaging, 48 h; measured here: cell count cytotoxicity
# Procedure, shortened: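 Flp-In T-REx 293 cells with tetracycline-inducible EGFP-delE hTOR1A (WT EGFP-hTOR1A as reference), 800 cells/well; compound added with tetracycline, 48 h at 37 C. Fixed, permeabilized cells imaged; %pathology (punctate TorsinA) primary, cell count counterscreen.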
# [2] = qHTS Assay for Lipid Storage Modulators (AID 1519); details: Drosophila S3 cells, BODIPY lipid droplet/cell ratio, laser cytometry, cells loaded with oleic acid
# Procedure, shortened: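 Cells seeded at 5,000 per well were treated with compounds over a concentration series and loaded with oleic acid (400 uM, as added). Lipid droplet fluorescence (488 nm excitation, 500-530 nm channel) was read by laser-scanning cytometry and normalized to 20 uM Triacsin C.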
# [3] = qHTS assay for small molecule antagonists of peroxisome proliferator-activated receptor delta signaling (AID 588535); details: HEK293T PPARd-UAS-bla, beta-lactamase FRET ratio, 18 h; 460 nm channel;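 note: cells co-treated with a PPAR-delta agonist as stimulator during compound exposure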
# Procedure, shortened: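 Antagonist-mode beta-lactamase reporter (GeneBLAzer PPAR-delta-UAS-bla) in HEK293T cells, 2% charcoal/dextran FBS, 4000 cells/well. Compound titrations, 18 h at 37 C; CCF4 ratio read, IC50 and efficacy from Hill fits.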
# [4] = qHTS assay for small molecule antagonists of retinoid X receptor alpha signaling (AID 588546); details: HEK293T RXRa-UAS-bla, beta-lactamase ratio, antagonist mode; measured here: W530 green channel, cytotoxicity proxy;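 note: cells stimulated with 9-cis-retinoic acid as agonist; % is set by controls: 0 for no effect and ±100 for the full control effect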
# Procedure, shortened: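 Beta-lactamase reporter inhibition, read as CCF4 fluorescence ratio (ex 405, em 460/530 nm) after 2 h at RT. HEK293T UAS-bla cells, 2500/well, were stimulated with 9-cis-RA at 500 or 100 nM final alongside test compound for 18 h at 37 C.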
# [5] = qHTS Assay for Inhibitors of PDE-IV (AID 607); details: HEK293 ACTOne CNG channel cells, membrane potential fluorescence; measured here: parental cell counter-screen
# Procedure, shortened: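 Live HEK293 cells with a modified cyclic nucleotide-gated (CNG) channel report intracellular cAMP via membrane-potential dye fluorescence (ex 535/em 590 nm). Endogenous PDE-IV was targeted. Compounds were tested at up to 22.9 uM final; RO 20-1724 100 uM served as control.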
# [6] = S16 Schwann cell PMP22 intronic element beta-lactamase assay (AID 624044); details: S16 rat Schwann cells, PMP22 element beta-lactamase FRET, 24 h; measured here: 460 nm blue channel
# Procedure, shortened: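 Rat S16 Schwann cells with beta-Lac driven by a PMP22 intronic element, compound-treated 24 h at 37 °C. LiveBLAzer FRET B/G read: 460 nm normalized to potassium clavulanate vs DMSO; 535 nm FRET as viability; concentration-effect curves classified.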
# [7] = Nrf2 qHTS screen for inhibitors: Validation (AID 493153); details: A549 ARE-Fluc reporter, 18-24 h; AC50: CellTiter-Fluor fluorescence read, measured here: cytotoxicity CellTiter-Fluor AC50; viability change: measured here: cytotoxicity max response
# Procedure, shortened: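 Luminescence from an ARE-firefly luciferase reporter in A549 cells gives Nrf2 inhibition; an earlier CellTiter-Fluor fluorescent read flags cytotoxicity. Cells in 5% FBS OPTI-MEM received compound dilution series for 18-24 h at 37°C.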
# [8] = qHTS Validation Assay to Find Inhibitors of Chronic Active B-Cell Receptor Signaling (AID 485345); details: ABC-DLBCL cells, chronic BCR signaling reporter; measured here: CBR control luciferase (viability counter)
# Procedure, shortened: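 TMD8 ABC-DLBCL cells stably carrying doxycycline-inducible IkappaBalpha–green luciferase fusion plus unfused red luciferase; compounds 46 uM to 3 nM, 4 h at 37C with doxycycline. Corrected green/red luminescence ratio normalized to 10 uM MG-132 and basal cell wells; curves fitted.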
# [9] = qHTS assay for small molecule antagonists of peroxisome proliferator-activated receptor gamma signaling (AID 588537); details: HEK293 PPARg-UAS-bla, beta-lactamase ratio, antagonist mode; measured here: W460 blue channel
# Procedure, shortened: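 PPARγ-UAS-bla HEK293 cells (3000/well) in 1% charcoal/dextran-stripped FBS are treated with compound, then stimulated with 50 nM rosiglitazone for 16 h at 37 °C. Read-out is CCF4 β-lactamase fluorescence after 2 h at RT. IC50 comes from Hill fits normalised to rosiglitazone and DMSO.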
# [10] = qHTS assay for small molecule agonists of retinoid X receptor alpha signaling (AID 588544); details: HEK293T RXRa-UAS-bla, beta-lactamase reporter, 18 h; 530 nm emission
# [11] = measured here: cell count channel max response
# [12] = measured here: lipid channel max response
structure (smiles),measurement,setting,value
Cc1cc(OI)c(C(C)C)cc1-c1cc(C(C)C)c(OI)cc1C,AC50,[1],"35.5 µM [rising, partial curve, poor fit]"
Nc1nc(=O)n([C@@H]2O[C@H](CO)[C@@H](O)[C@@H]2F)cc1I,AC50,[1],"10 µM [rising, single point]"
CCN(CC)CCOc1ccc(C(O)(Cc2ccc(Cl)cc2)c2ccc(C)cc2)cc1 (configuration not stated),AC50,[1],"1.41 µM [falling, full curve]"
CN(C/C=C/C#CC(C)(C)C)Cc1cccc2ccccc12,AC50,[1],"20 µM [rising, single point]"
NC(=O)c1ncn([C@@H]2O[C@H](CO)[C@@H](O)[C@H]2O)n1,max response,[2]; [11],29%
same,max response,[2]; [12],31.3%
same,max response,[3],2.03%
same,max response,[4],8.49%
COc1cc(COc2cc(N)c(Cl)cc2C(=O)CCC2CCN(CCNS(C)(=O)=O)CC2)cc(OC)c1,AC50,[5],"20 µM [rising, single point]"
same,max response,[2]; [11],98.8%
same,max response,[2]; [12],103%
CCC(C(=O)C(C)C(O)C(C)CCc1ccc(C)c(O)c1C(=O)O)C1OC(CC)(C2CC[C@@](O)(CC)C(C)O2)CC1C (some centres not stated),max response,[2]; [11],-22%
same,max response,[2]; [12],-80.1%
same,AC50,[6],"7.07 µM [falling, full curve]"
CN(CCCN1c2ccccc2CCc2ccccc21)CC(=O)c1ccc(Cl)cc1,AC50,[1],"7.94 µM [falling, partial curve, poor fit]"
NC(=O)c1ccccc1,max response,[2]; [11],45.5%
same,max response,[2]; [12],40.8%
same,viability change,[7],6.6%
Cc1noc(C)c1C(=O)N1CCC[C@@]2(CCN(c3cccc(-c4ccccc4)c3)C2)C1,AC50,[5],"10 µM [rising, single point]"
same,max response,[2]; [11],2.68%
same,max response,[2]; [12],-50.3%
CCOc1ccccc1O[C@H](c1ccccc1)[C@H]1CNCCO1,AC50,[1],"2.24 µM [falling, full curve, poor fit]"
CC(=O)N[C@H](C(=O)O)C(C)(C)SN=O,max response,[2]; [11],41.3%
same,max response,[2]; [12],38.2%
same,AC50,[8],"29.1 µM [rising, single point]"
CCOC(=O)c1ccc(OCCN2C[C@H](O)[C@@H](O)[C@H](O)[C@H]2CO)cc1,AC50,[1],"12.6 µM [rising, partial curve, poor fit]"
O=C(O)CCCCC1CCSS1 (configuration not stated),max response,[2]; [11],58.8%
same,max response,[2]; [12],61.7%
same,max response,[3],91.5%
same,AC50,[9],"70.8 µM [rising, single point]"
same,max response,[10],29% and 13.2%
same,max response,[4],12.9%
COc1cccc(Nc2ncc3ncc(=O)n(Cc4cccs4)c3n2)c1,AC50,[5],"10 µM [rising, single point]"
same,max response,[2]; [11],-10.9%
same,max response,[2]; [12],-30.1%
CCN[C@H]1C[C@H](C)S(=O)(=O)c2sc(S(N)(=O)=O)cc21,AC50,[1],"35.5 µM [falling, partial curve, poor fit]"
COc1ccccc1OCC1CNC(=O)O1 (configuration not stated),AC50,[1],"7.08 µM [falling, partial curve]"
CC(=O)C(C)=O,max response,[2]; [11],35.2%
same,max response,[2]; [12],32.2%
same,AC50,[8],"0.92 µM [rising, full curve, poor fit]"
NC1CCN(c2cccc(Cl)n2)CC1,AC50,[1],"12.6 µM [falling, single point]"
c1ccc(C(O[C@H]2CCCN(CCc3ccc4c(c3)OCO4)C2)c2ccccc2)cc1,AC50,[1],"5.01 µM [falling, partial curve]"
O=C(OCC1OC(OC(=O)c2cc(O)c(O)c(OC(=O)c3cc(O)c(O)c(O)c3)c2)[C@@H](OC(=O)c2cc(O)c(O)c(OC(=O)c3cc(O)c(O)c(O)c3)c2)C(OC(=O)c2cc(O)c(O)c(OC(=O)c3cc(O)c(O)c(O)c3)c2)C1OC(=O)c1cc(O)c(O)c(OC(=O)c2cc(O)c(O)c(O)c2)c1)c1cc(O)c(O)c(OC(=O)c2cc(O)c(O)c(O)c2)c1 (some centres not stated),max response,[2]; [11],-4.64%
same,max response,[2]; [12],23.8%
same,AC50,[6],"22.4 µM [falling, partial curve]"
CNCC[C@H](Oc1ccccc1OC)c1ccccc1,AC50,[5],"12.6 µM [rising, partial curve, poor fit]"
same,max response,[2]; [11],22.7%
same,max response,[2]; [12],27.3%
c1ccc(CC2=NCCN2)cc1,AC50,[1],"35.5 µM [rising, single point]"
Cn1c(=O)c2c(ncn2C)n(C)c1=O,max response,[2]; [11],47.3%
same,max response,[2]; [12],48%
same,AC50,[9],"50.1 µM [rising, single point]"
Cc1ccccc1C(=O)Nc1ccc(C(=O)N2CCCC(N(C)C)c3ccccc32)cc1 (configuration not stated),AC50,[1],"7.08 µM [falling, partial curve, poor fit]"
CC(C)C[C@H](NC(=O)C1OC1C(=O)O)C(=O)NCCCCN=C(N)N (some centres not stated),max response,[2]; [11],35.7%
same,max response,[2]; [12],34.7%
same,AC50,[7],"14.6 µM [falling, partial curve]"
same,viability change,[7],-49.3%
O=C(O)CN1C(=O)c2cccc3cccc(c23)C1=O,AC50,[5],"15.8 µM [rising, partial curve, poor fit]"
same,max response,[2]; [11],23.8%
same,max response,[2]; [12],30.7%
OCc1cc([C@@H](O)CNCCCCCCOCCCCc2ccccc2)ccc1O,AC50,[5],"15.8 µM [rising, single point]"
same,max response,[2]; [11],59.4%
same,max response,[2]; [12],75.2%
CCCSc1ccc2nc(NC(=O)OC)[nH]c2c1,AC50,[1],"1.12 µM [falling, full curve, poor fit]"
CC(C)(C)c1ccc(S(=O)(=O)/C=C\C#N)cc1,AC50,[5],"15.8 µM [rising, partial curve]"
same,AC50,[2]; measured here: lipid (BODIPY) channel AC50,"8.91 µM [falling, full curve, poor fit]"
O=C(OCc1ccccc1)c1ccccc1,AC50,[1],"15.8 µM [rising, single point]"
